Assay results taken from paper PMC5345165, “Cardiotoxicity evaluation using human embryonic stem cells and induced pluripotent stem cell-derived cardiomyocytes” (Stem Cell Research & Therapy, 2017).

What was measured:
hESC-CMs = experiment: xCELLigence RTCA Cardio impedance assay on hESC-CMs
Description: (§1) Human ESC-CMs were kindly provided by the Institute of Biophysics of the Chinese Academy of Sciences, Beijing, China. Human iPSC-CMs, provided by a domestic manufacturer (Cellapy: CA2001106, Beijing, China), were also examined. Cells were incubated in maintaining medium at 37 °C, 5% CO2, with culture medium refreshed every 2 days. Cells were dissociated and replated into 96-well E-plates (ACEA Biosciences, Hangzhou, China), which was pre-coated with 0.1% gelatin. Cells were plated at a density of 50,000 cells per well.
(§2) Spontaneous cardiomyocytes contraction and cell health were monitored in real-time by impedance using xCELLigence real-time cellular analyzer (RTCA) Cardio system (ACEA Biosciences, Hangzhou, China). Impedance signals were monitored and recorded with 20 s recording per sweep.
(§3) Drug dilutions were equilibrated in a 37 °C, 5% CO2 incubator for 30 min before being applied to E-plates.
(§4) For data analysis, cellular impedance index, beat rate, and amplitude were measured off-line using RTCA Cardio software 1.0 and normalized for each well to the baseline (pre-dose) values measured prior to the compounds treatment. Statistics were performed using SPSS 21.0 (IBM Corp., Armonk, NY, USA). Data were presented as mean ± SEM. Statistical significance of differences was estimated by one-way ANOVA or Student’s t test. p < 0.05 was considered significant.

hiPSC-CMs = experiment: xCELLigence RTCA Cardio impedance assay on hiPSC-CMs
Description: as §1, §2, §3, §4

- effect on CI (hESC-CMs): increased
- CI (concentration at which cell index is increased, ↑) (hESC-CMs; arrow ↑ = CI increased): 0.01↑ μmol•L^-1
- effect on CI (hiPSC-CMs; 100 and 300 nmol/L): substantially reduced
- CI (concentration at which cell index is decreased, ↓) (hiPSC-CMs; arrow ↓ = CI decreased): 0.1↓ μmol•L^-1
Compound: Cc1cccc(CCN2CCC(C(=O)c3ccc(NS(C)(=O)=O)cc3)CC2)n1 [E-4031]
